Measured values: the supplement of paper PMC12823440, “Inhibitors supercharge kinase turnover through native proteolytic circuits” (Nature, 2025)
The list shows a part of the results. The calls rarely recur for the same compound in another form.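 Kinases, fused to nanoluciferase, were expressed in K562 cells; luminescence was measured every 4 h from 2 to 18 h as percent of control (DMSO = 100%, positive control = 0%). A time point is decreased if signal falls significantly (2 sigma). Hits were called by the authors by a rule that is not shown; the count of time points alone does not decide it.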

Protein sequences, listed by entry. Tags and fused reporters are not part of them.
UniProt P07949, whole entry M918T, looked up: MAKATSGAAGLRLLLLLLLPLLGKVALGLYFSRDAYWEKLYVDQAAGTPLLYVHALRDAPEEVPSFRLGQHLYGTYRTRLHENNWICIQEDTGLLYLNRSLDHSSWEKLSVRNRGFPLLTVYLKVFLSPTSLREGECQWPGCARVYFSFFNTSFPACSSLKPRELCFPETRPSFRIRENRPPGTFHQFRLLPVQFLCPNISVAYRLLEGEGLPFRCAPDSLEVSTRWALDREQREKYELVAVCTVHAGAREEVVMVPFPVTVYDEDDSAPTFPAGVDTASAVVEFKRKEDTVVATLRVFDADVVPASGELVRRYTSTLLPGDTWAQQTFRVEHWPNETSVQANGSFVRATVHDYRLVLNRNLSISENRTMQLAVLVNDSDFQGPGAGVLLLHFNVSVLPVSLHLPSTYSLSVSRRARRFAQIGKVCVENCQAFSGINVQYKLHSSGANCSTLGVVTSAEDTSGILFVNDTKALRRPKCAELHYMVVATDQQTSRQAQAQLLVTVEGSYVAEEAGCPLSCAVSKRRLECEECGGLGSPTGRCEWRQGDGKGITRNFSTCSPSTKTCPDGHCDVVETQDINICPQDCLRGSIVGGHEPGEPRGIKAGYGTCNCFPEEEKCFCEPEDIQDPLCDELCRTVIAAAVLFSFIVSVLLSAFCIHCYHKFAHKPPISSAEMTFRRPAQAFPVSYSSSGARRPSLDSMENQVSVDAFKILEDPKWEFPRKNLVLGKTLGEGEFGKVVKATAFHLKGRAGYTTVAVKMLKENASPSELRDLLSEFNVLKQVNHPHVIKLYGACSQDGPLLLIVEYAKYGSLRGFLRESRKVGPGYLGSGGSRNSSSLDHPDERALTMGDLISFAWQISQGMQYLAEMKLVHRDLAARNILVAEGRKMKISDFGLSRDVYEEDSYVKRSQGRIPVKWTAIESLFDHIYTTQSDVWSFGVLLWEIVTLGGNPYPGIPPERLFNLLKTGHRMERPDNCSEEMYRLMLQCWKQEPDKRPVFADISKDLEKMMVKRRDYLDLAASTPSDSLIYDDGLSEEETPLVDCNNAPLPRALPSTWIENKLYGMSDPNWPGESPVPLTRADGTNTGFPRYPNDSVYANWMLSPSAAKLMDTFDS

The compounds below were run against RET_M918T (clone: RET_mut) (UniProt P07949) (assay: kinase-Nluc reporter destabilization hit call (1 = scored as downregulated) (binary); higher = compound decreases kinase abundance). Conditions: K562; 2-18 h.

kinase-Nluc reporter destabilization hit call, inactive:
COc1cc2ncnc(Nc3ccccc3)c2cc1OC (10 µM) 0
O=C(Nc1nc2ccccc2[nH]1)c1cccc([N+](=O)[O-])c1 [IRAK-4 protein kinase inhibitor 2] (10 µM) 0
Cc1ccc(Oc2nc3cc(-c4ccc(-c5ccccc5)cc4)c(Cl)cc3[nH]2)cc1C(=O)O (10 µM) 0
c1ccc(-c2nc3c(c(-n4ccc5cnccc54)n2)CCC3)nc1 (10 µM) 0
Cn1ncc2cc(-c3cnc(N)c(Cl)c3N3CCC4(CCNC4=O)CC3)ccc21 (10 µM) 0
C[C@H](Nc1ncnc2nc[nH]c12)c1cc2cccc(Cl)c2c(=O)n1-c1ccccc1 [Duvelisib] (10 µM) 0
CS(=O)(=O)c1ccc(-c2cnc(N)c(-c3ccc(C(F)(F)F)nc3)c2)cc1 (10 µM) 0
c1cc(NC2CCNCC2)nc(-c2cnc3ccccn23)c1 [IRAK inhibitor 1] (10 µM) 0
C[C@@H]1CCNC(=O)c2cc3ccc(C(=O)Nc4nc5ccccc5n4CCCN(C)C)cc3n21 (10 µM) 0
Cc1cnc(NC2CCOCC2)nc1-n1cnc(C(=O)N[C@H](CN)c2cc(F)cc(Cl)c2)c1 (10 µM) 0
O=C(NCc1cccc(O)c1)Nc1nc(-c2ccncc2)cs1 (10 µM) 0
Cc1cc2sc(NC(=O)Cc3ccccc3)nc2cc1Cl (10 µM) 0
COc1cc2ncnc(-n3nc(-c4ccccn4)nc3N)c2cc1OC (10 µM) 0
O=C(N[C@@H](C1CC1)C(F)(F)F)c1cc(-c2cnn3cc(-c4ccc(F)cc4)cnc23)cs1 (10 µM) 0
O=C1/C(=C\c2ccc(Cl)cc2)C=C(c2ccccc2)N1c1ccc(O)cc1 (2.5 µM) 0
CNC(=O)c1ccccc1Nc1nc(Nc2ccc3c(c2OC)CCC[C@H](N2CCN(CCO)CC2)C3)ncc1Cl (10 µM) 0
C=CC(=O)Nc1cccc(CNc2nc(Nc3ccc(N4CCN(C)CC4)cc3OC)ncc2Cl)c1 (10 µM) 0
CC(C)=CCc1c(-c2ccc(O)cc2O)oc2c3c(cc(O)c2c1=O)OC(C)(C)C=C3 [Morusin] (2.5 µM) 0
CN1CCC(c2ccccc2CC(C)(C)Nc2nc(N3CCOCC3)nc(-n3c(C(F)F)nc4ccccc43)n2)CC1 [Zandelisib] (10 µM) 0
CC(C)(O)[C@H]1CC[C@H](Nc2ccc3ncc(-c4cccc(C(F)(F)F)c4)n3n2)CC1 (10 µM) 0
CC(C)c1cc(/C=C(\C#N)C(=O)NCCCc2ccccc2)cc(C(C)C)c1O (10 µM) 0
CCOC(=O)N1C/C(=C/c2ccccc2F)C(=O)/C(=C\c2ccccc2F)C1 (2.5 µM) 0
C=CC(=O)Nc1cccc(-c2cccc3cnc(Nc4ccc(N5CCN(CCO)CC5)c(F)c4F)nc23)c1 [Olafertinib] (2.5 µM) 0
COc1cc(N2CCOCC2)ccc1Nc1ncc(Cl)c(Nc2ccccc2NS(C)(=O)=O)n1 (2.5 µM) 0
Nc1n[nH]c2nc(-c3ccc(NS(=O)(=O)c4cc(Cl)ccc4F)cc3)cnc12 (10 µM) 0
Nc1c(C(=O)NCc2ccc(C(=O)NCCCC3CCCCC3)cc2)cnn1-c1ccccc1 (2.5 µM) 0

Quoted at random: 2 records from the list
kinase-Nluc reporter destabilization hit call, inactive:
Cc1cc2sc(NC(=O)Cc3ccccc3)nc2cc1Cl (10 µM) 0
C=CC(=O)Nc1cccc(CNc2nc(Nc3ccc(N4CCN(C)CC4)cc3OC)ncc2Cl)c1 (10 µM) 0
